Test results as given in patent US20260079169A1, “VOLATILE ORGANIC COMPOUNDS AS MARKERS FOR CELLULAR COMMUNICATION” (Technion Research and Development Foundation Limited, priority 2020, published 2026).

system: different-cell pairs of BEAS-2B, A549, H1299, H1975 without physical contact under a mutual headspace; test: VOCs headspace analysis (ITEX GC-MS) of different-cell pair co-culture headspace groups (Format-3), bulk cell samples; format: cell-based, human; parameters: key to Category (VOC increased or decreased relative to the control): ↑: Increased; ↓: decreased; ↑*: <0.01; ↑**: <0.001; settings: all groups; T24, T48 and T72 h

Compound | VOCs found at T24, T48 and T72 h incubation in all groups
CCC(C)C=O (stereo not shown) [2-methyl butanal] | commonly found
O=C(c1ccccc1)c1ccccc1 [Benzophenone] | commonly found

same assay, conditions: different-cell pair co-culture headspace (Format-3); 24 h; averaged peak area (n = 3)

Compound | Category (VOC increased or decreased relative to the control)
CCOC(=O)C1Oc2ccccc2O1 [1,3-Benzodioxole-2-carboxylic acid, ethyl ester] | ↑
CCCCCCCCCCCCCCCC(C)=O [2-Heptadecanone] | ↓
CCCCCCCCCCCCCC(C)=O [2-Pontadecanone] | ↓
CC(C)(C)c1cc(C=O)cc(C(C)(C)C)c1O [3,5-di-tert-Butyl-4-hydroxybenzaldehyde] | ↓
CCC=C(CC)CC [3-Ethyl-3-hexene] | ↑
CCCC=C(C)CC [3-Heptene, 3-methyl-] | ↑* (↑*: <0.01)
CC/C=C\CCOC(=O)CC [3-Hexen-1-ol, propanoate, (Z)-] | ↑
CC(=O)c1cncnc1 [5-Acetylpyrimidine] | ↑* (↑*: <0.01)
NC(=O)CF [Acetamide, 2-fluoro-] | ↑
COC(=O)C(OC)OC [Acetic acid, dimethoxy-, methyl ester] | ↑** (↑**: <0.001)
CC(C)(C)c1cccc(C(C)(C)C)c1 [Benzene, 1,3-bis(1,1-dimethylethyl)-] | ↑
CCOC(=O)c1ccc(OCC)cc1 [Benzoic acid, 4-ethoxy-, ethyl ester] | ↑
CCCCCC(C)CC(C)(C)CC (stereo not shown) [Decane, 3,3,5-trimethyl-] | ↑
O=COCC(=O)c1ccccc1 [Ethanone, 2-(formyloxy)-1-phenyl-] | ↑* (↑*: <0.01)
N#C/C=C/C#N [Fumaronitrile] | ↑
CCCCCCCCCCCCCCCC [Hexadecane] | ↑* (↑*: <0.01)
CCCC(C)CC(C)CC (stereo not shown) [Octane, 3,5-dimethyl-] | ↑* (↑*: <0.01)
CCCCC(C)CCC(C)CCC (stereo not shown) [Undecane, 4,7-dimethyl-] | ↑

same assay, conditions: different-cell pair co-culture headspace (Format-3); 48 h; averaged peak area (n = 3)

Compound | Category (VOC increased or decreased relative to the control)
CN(C)c1cc(C(=O)O)cc(C(=O)O)c1 [1,3-benzenedicarboxylic acid, 5-(dimethylamino)-] | ↓
C1=Cc2ccc3cccc4c3c2C(=CC4)C1 [1,9-Dihydropyrene] | ↑* (↑*: <0.01)
CC(C)CCCC(=O)c1ccccc1 [1-Hexanone, 5-methyl-1-phenyl-] | ↑* (↑*: <0.01)
C/C=C/C(C)CCC (stereo not shown) [2-Heptene, 4-methyl-, (E)-] | ↓
CCCOC(=O)OC(C)(CC)CC [3-Methylpentan-3-yl propyl carbonate] | ↑* (↑*: <0.01)
CC=C(C)CCCC [3-methyl-2-Heptene] | ↓
CCCOC(=O)c1ccc(F)c(C(F)(F)F)c1 [4-Fluoro-3-trifluoromethylbenzoic acid, propyl ester] | ↑* (↑*: <0.01)
O=C(O)CO [Acetic acid, hydroxy-] | ↑* (↑*: <0.01)
c1ccc([C@H]2CC[C@H]2c2ccccc2)cc1 [Benzene, 1,1′-(1,2-cyclobutanediyl)bis-, cis-] | ↑
CC(C)(C)c1cccc(C(C)(C)C)c1 [Benzene, 1,3-bis(1,1-dimethylethyl)-] | ↓
c1ccccc1 [Benzene] | ↓
C=CCOCCCC [Butane, 1-(2-propenyloxy)-] | ↑* (↑*: <0.01)
OC1CCCCC1 [Cyclohexanol] | ↑* (↑*: <0.01)
CCCCCCC(C)CC(C)C (stereo not shown) [Decane, 2,4-dimethyl-] | ↓
COC [Dimethyl ether] | ↑
CCCCCCCCCCCC [Dodecane] | ↓
C#CF [Ethyne, fluoro-] | ↑
CCCC(C)(C)CC [Hexane, 3,3-dimethyl-] | ↓
CC(C)(C)C [Neopentane] | ↑
CCCCCCCCCCCCCCC [Pentadecane] | ↑* (↑*: <0.01)
CCCC(C)C=O (stereo not shown) [Pentanal, 2-methyl-] | ↑
CC(C)C(C)C(C)(C)C (stereo not shown) [Pentane, 2,2,3,4-tetramethyl-] | ↑
CC(C)(C)c1ccc(C(C)(C)C)c(O)c1 [Phenol, 2,5-bis(1,1-dimethylethyl)-] | ↑* (↑*: <0.01)
O=S=O [Sulfur dioxide] | ↑* (↑*: <0.01)
CCCOC(OCCC)OCCC [Tripropyl orthoformate] | ↑* (↑*: <0.01)
CCCCCC(C)CCC(C)CC (stereo not shown) [Undecane, 3,6-dimethyl-] | ↑* (↑*: <0.01)

same assay, conditions: different-cell pair co-culture headspace (Format-3); 72 h; averaged peak area (n = 3)

Compound | Category (VOC increased or decreased relative to the control)
CCOC(=O)C1Oc2ccccc2O1 [1,3-Benzodioxole-2-carboxylic acid, ethyl ester] | ↑* (↑*: <0.01)
CN(C)c1cc(C(=O)O)cc(C(=O)O)c1 [1,3-benzenedicarboxylic acid, 5-(dimethylamino)-] | ↑* (↑*: <0.01)
C=CCOCCC [1-Propene, 3-propoxy-] | ↑
COc1ccc(C=CC(=O)O)cc1OC [3,4-Dimethoxycinnamic acid] | ↓
Cc1ccc(C=Nc2ccc(C)cc2)cc1 [4-Methylbenzylidene-4-methylaniline] | ↑
CCCCC(=O)C(=O)CCCC [5,6-Decanedione] | ↑* (↑*: <0.01)
NC(=O)CF [Acetamide, 2-fluoro-] | ↑* (↑*: <0.01)
CC1(c2ccccc2)CNC1 [Azetidine, 3-methyl-3-phenyl-] | ↑
CCCCC(CC)COC(=O)c1ccccc1 (stereo not shown) [Benzoic acid, 2-ethylhexyl ester] | ↑
O=C(O)CC(C(=O)O)c1ccccc1 (stereo not shown) [Butanedioic acid, phenyl-] | ↑* (↑*: <0.01)
CCCC(=N)N [Butanimidamide] | ↑
CC(C)CCOC(=O)C1CCC1 [Cyclobutanecarboxylic acid, 3-methylbutyl ester] | ↑* (↑*: <0.01)
CC(C)CCCC(C)CCC(C)C (stereo not shown) [Decane, 2,5,9-trimethyl-] | ↓
CCC(C)CCCC(C)CCCC(C)C (stereo not shown) [Dodecane, 2,6,10-trimethyl-] | ↑
CCC(C)CCC(C)CCCCC(C)C (stereo not shown) [Dodecane, 2,7,10-trimethyl-] | ↓
CCCCCCCCCCCCOCCCCCCCC [Dodecyl octyl ether] | ↑
CC=COCC [Ethyl-1-propenyl ether] | ↑* (↑*: <0.01)
N#C/C=C/C#N [Fumaronitrile] | ↑
CCCCCCCCCCCCCCC(C)C [Hexadecane, 2-methyl-] | ↑* (↑*: <0.01)
CC[C@H](c1ccc(O)cc1)[C@@H](CC)c1ccc(O)cc1 [Hexestrol] | ↑
COC(=O)[C@H](C)N [L-Alanine, methyl ester] | ↑
CC(O)(C(=O)O)C(=O)O [Methyltartronic acid] | ↑* (↑*: <0.01)
CNCCS(=O)(=O)O [N-Methyltaurine] | ↑
CCC(C)(C)CC [Pentane, 3,3-dimethyl-] | ↑
Cc1cc(-c2ccccc2)nc(-c2ccccc2O)n1 [Phenol, 2-(4-methyl-6-phenyl-2-pyrimidinyl)-] | ↑* (↑*: <0.01)
COC(C)(C)C [Propanc, 2-methoxy-2-methyl-] | ↑* (↑*: <0.01)
CC(C)C(O)C(O)C(C)C (stereo not drawn) [meso-2,5-Dimethyl-3,4-hexanediol] | ↑
CC(C)(N)C(=O)O [α-Aminoisobutanoic acid] | ↓

system: A549, H1299, H1975 human lung cancer lines and BEAS-2B normal cell line, each cultured alone; test: VOCs headspace analysis (ITEX GC-MS) of mono-culture groups (Format-1), bulk cell samples 1×10^4 cells; format: cell-based; parameters: key to Category (VOC increased or decreased relative to the control): ↑: Increased; ↓: decreased; ↑*: <0.01; ↑**: <0.001; settings: mono-culture groups (Format-1); 24 h incubation; averaged peak area (n = 3)

Compound | Category (VOC increased or decreased relative to the control)
3-Methyl-3-buten | ↑
CC(=O)c1ccc(C(C)=O)cc1 [1,4-Diacetylbenzene] | ↑* (↑*: <0.01)
CCCCCCCCCCCCO [1-Dodecanol] | ↑* (↑*: <0.01)
Cc1cc(C)nc(C)c1 [2,4,6-Trimethylpyridine] | ↑
C=C(C)CC(C)CCC (stereo not shown) [2,4-Dimethyl-1-heptane] | ↑

same assay, conditions: mono-culture groups (Format-1); 48 h incubation; averaged peak area (n = 3)

Compound | Category (VOC increased or decreased relative to the control)
CCCCCCCCCCCCO [1-Dodecanol] | ↑** (↑**: <0.001)
CC(C)C(=O)OCC(C)(C)C(OC(=O)C(C)C)C(C)C (stereo not shown) [2,2,4-Trimethyl-1,3-pentanediol diisobutyrate] | ↑
Cc1cc(C)nc(C)c1 [2,4,6-Trimethylpyridine] | ↑

same assay, conditions: mono-culture groups (Format-1); 72 h incubation; averaged peak area (n = 3)

Compound | Category (VOC increased or decreased relative to the control)
CCCCO [1-Butanol] | ↓
Cc1cc(C)nc(C)c1 [2,4,6-Trimethylpyridine] | ↑
C=C(C)CC(C)CCC (stereo not shown) [2,4-Dimethyl-1-heptane] | ↑
